The source of these data is article PMC5794803, “IGFBPL1 Regulates Axon Growth through IGF-1-mediated Signaling Cascades” (Scientific Reports, 2018).

The chains behind the UniProt entries cited, without tags or fusion partners. Residues count along the entry.
UniProt P05017, residues 49-118: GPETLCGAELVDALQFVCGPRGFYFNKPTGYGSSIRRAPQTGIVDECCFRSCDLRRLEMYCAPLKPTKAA

The target of experiment [1] is T1, IGFBPL1, endogenous in newborn mouse retina (mouse (endogenous in P0 retina)) (UniProt Q80W15).
T1 sequence: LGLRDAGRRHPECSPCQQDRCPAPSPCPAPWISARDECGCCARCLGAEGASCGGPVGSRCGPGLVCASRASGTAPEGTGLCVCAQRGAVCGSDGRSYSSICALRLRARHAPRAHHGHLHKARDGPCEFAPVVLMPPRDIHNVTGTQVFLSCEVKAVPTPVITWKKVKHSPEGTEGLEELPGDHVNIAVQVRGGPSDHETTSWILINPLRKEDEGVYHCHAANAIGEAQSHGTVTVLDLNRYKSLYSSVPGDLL
Nature of the experiment: co-IP; pre-cleared retinal lysate of P0 mouse pups; goat anti-IGFBPL1 or goat anti-IGF-1 antibody coupled to resin (Pierce Co-IP kit), 4 °C overnight, Western blot. (Immunoblotting shows a protein as a band on a membrane.)

Experiment [2] has as its target IGF-1, endogenous in newborn mouse retina (mouse (endogenous in P0 retina)) (UniProt P05017). The experiment is described as above.

Results are given in words; binding and its absence hold for the method and conditions named. Binding seen in cells or lysates may run through a third protein. Some binding calls cover weakened binding; strength is not graded here.

In the case of “IGF-1, endogenous in newborn mouse retina (from UniProt P05017 49-118) (ligand)”, the binding result in experiment [1] was “binds”.

B1: recombinant mouse IGFBPL1 (insulin-like growth factor binding protein-like 1) (natural protein, UniProt Q80W15 18-270, looked up)
chain: T1 sequence
In the case of B1, the binding result in experiment [2] was “binds”.
